# Results as given in article PMC4303303.
# The chains behind the UniProt entries cited, without tags or fusion partners.
# UniProt P97496: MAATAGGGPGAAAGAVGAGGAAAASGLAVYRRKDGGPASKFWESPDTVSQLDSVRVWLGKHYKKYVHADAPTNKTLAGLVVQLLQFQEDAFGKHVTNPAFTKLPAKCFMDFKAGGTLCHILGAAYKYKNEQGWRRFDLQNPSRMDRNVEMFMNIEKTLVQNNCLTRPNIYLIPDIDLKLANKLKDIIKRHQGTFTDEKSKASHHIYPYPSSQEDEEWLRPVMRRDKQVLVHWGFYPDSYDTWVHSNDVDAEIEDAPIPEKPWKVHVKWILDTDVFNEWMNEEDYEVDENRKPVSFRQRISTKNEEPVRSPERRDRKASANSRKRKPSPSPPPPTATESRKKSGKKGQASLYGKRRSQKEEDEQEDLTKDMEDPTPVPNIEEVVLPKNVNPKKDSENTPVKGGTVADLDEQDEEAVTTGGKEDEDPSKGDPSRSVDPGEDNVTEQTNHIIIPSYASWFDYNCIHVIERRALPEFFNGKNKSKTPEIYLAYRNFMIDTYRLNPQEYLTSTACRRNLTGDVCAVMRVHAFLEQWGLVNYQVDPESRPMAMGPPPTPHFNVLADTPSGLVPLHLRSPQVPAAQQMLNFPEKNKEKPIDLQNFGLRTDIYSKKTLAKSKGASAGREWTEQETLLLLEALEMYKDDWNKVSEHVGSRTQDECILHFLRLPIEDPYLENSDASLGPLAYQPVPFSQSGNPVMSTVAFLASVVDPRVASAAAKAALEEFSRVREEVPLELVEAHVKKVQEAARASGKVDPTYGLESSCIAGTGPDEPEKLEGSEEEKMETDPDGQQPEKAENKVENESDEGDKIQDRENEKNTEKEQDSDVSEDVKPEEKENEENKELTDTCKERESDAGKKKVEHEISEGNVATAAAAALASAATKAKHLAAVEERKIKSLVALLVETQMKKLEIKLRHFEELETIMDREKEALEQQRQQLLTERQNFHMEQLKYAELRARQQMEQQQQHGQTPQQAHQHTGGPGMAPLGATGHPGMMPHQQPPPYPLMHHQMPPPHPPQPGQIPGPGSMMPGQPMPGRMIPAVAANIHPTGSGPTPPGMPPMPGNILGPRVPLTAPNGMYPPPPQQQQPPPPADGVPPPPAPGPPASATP
# UniProt G5E870: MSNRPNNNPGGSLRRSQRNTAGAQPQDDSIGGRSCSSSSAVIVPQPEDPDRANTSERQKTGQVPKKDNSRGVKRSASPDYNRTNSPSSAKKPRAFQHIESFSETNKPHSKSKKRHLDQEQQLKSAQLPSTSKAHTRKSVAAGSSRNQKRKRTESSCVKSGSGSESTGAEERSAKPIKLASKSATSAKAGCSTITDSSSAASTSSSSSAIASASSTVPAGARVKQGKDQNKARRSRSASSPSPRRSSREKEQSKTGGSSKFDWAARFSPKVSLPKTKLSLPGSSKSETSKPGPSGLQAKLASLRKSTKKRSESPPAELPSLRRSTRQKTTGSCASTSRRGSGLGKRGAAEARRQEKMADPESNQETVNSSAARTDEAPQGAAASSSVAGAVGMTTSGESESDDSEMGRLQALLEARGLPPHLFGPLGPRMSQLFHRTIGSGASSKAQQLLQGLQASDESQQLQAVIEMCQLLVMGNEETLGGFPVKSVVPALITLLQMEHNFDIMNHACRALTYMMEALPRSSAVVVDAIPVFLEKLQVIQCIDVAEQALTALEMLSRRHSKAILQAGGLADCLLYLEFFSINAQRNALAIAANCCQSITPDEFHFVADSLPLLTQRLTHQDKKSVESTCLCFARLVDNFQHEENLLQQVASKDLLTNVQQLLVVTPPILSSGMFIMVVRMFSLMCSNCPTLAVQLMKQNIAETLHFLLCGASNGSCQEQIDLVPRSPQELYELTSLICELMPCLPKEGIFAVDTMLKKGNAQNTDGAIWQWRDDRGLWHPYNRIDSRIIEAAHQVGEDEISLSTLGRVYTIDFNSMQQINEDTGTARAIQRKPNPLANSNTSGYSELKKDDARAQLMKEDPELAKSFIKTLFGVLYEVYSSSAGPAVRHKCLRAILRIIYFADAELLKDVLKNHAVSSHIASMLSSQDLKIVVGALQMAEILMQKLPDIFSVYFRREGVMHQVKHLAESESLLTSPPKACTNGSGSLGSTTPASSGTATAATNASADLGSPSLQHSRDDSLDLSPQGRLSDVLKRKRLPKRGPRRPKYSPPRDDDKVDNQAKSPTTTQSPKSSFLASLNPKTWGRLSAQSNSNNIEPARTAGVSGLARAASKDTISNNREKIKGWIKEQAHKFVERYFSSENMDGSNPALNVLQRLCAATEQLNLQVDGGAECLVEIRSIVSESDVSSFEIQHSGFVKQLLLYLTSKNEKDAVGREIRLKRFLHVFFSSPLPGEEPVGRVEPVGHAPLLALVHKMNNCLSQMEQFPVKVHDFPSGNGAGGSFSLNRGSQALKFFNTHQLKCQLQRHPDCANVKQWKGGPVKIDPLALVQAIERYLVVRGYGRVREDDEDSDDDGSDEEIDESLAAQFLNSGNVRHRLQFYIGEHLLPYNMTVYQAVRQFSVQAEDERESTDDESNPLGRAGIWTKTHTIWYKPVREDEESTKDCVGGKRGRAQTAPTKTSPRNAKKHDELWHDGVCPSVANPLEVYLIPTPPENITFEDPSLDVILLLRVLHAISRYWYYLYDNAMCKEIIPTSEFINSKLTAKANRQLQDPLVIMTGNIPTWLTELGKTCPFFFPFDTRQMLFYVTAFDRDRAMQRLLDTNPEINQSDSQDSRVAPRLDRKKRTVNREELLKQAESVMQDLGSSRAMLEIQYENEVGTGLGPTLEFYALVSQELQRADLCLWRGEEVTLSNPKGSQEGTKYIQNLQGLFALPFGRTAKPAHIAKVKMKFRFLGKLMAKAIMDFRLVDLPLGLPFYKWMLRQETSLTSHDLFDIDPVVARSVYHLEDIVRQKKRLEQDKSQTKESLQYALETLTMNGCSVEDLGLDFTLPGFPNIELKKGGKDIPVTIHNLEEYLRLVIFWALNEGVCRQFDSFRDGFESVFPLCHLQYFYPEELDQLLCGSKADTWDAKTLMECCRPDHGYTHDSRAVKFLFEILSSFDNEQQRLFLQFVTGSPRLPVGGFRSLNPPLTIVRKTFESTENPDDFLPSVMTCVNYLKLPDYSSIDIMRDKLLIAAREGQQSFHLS
# Biological target: SETDB1 (mouse (endogenous in TT2 mESCs)) (UniProt O88974)
# Assay: affinity purification with mass spectrometry; IP of endogenous SETDB1 (anti-SETDB1 H300 crosslinked to protein G sepharose) against rabbit IgG from the 0.5 M KCl anionic column fraction (depleted of SENP1) of TT2 mESC nuclear extract prepared without NEM; overnight at 4°C; LC-MS/MS
row,Molecule,binding
1,BAF155 (from UniProt P97496 1-1104),binds
2,"MCM5 (protein, UniProt P49718 1-734) MSGFDDPGIFYSDSFGGDPGAEEGQARKSQLQRRFKEFLRQYRVGTDRTGFTFKYRDELKRHYNLGEYWIEVEMEDLASFDEELADHLHKQPAEHLQLLEEAAKEVADEVTRPRPAGDELLQDIQVMLKSDASPSSIRILKSDMMSHLVKIPGIIISASAVRAKATRISIQCRSCHNTLTNIAMRPGLEGYALPRKCNMDQAGRPKCPLDPYFIMPDKCKCVDFQTLKLQELPDAVPHGEMPRHMQLYCDRYLCDKVVPGNRVTIMGIYSIKKFGLNPSKGRDRVGVGIRSSYIRVLGIQVDTDGSGRSFAGSVSPQEEEEFRRLAALPNIYELISKSISPSIFGGMDMKKAIACLLFGGSRKRLPDGLTRRGDINLLMLGDPGTAKSQLLKFVEKCSPIGVYTSGKGSSAAGLTASVIRDPSSRNFIMEGGAMVLADGGVVCIDEFDKMREDDRVAIHEAMEQQTISIAKAGITTTLNSRCSVLAAANSVFGRWDETKGEDNIDFMPTILSRFDMIFIVKDEHNEERDMMLAKHVMTLHVSALTQTQAVEGEIDLAKMKKFIAYCRARCGPRLSAEAAEKLKNRYIIMRSGARQHERDSDRRSSIPITVRQLEAIVRIAEALSKMKLQPFATEADVEEALRLFQVSTLDAALSGNLSGVEGFTTQEDQEMLSRIEKQLKRRFAIGSQVSEHSIVQDFTKQKYPEHAIRKVLQLMLRRGEIQHRMQRKVLYRLK",binds
3,"Nup155 (protein, UniProt Q99P88 1-1391) MPSVLGSMMVASTSAAASLQEALENAGRLIDRQLQEDRMYPDLSELLMVSAPNSPTVSGMSDMDYPLQGPGLLSVPSLPEISTIRRVPLPPELVEQFGHMQCNCMMGVFPPISRAWLTIDSDIFMWNYEDGGDLAYFDGLSETILAVGLVKPKAGIFQPHVRHLLVLATPVDIVILGLSYANVQTGSGILNDSMCGGMQLLPDPLYSLPTDNTYLLTITSTDNGRIFLAGKDGCLYEVAYQAEAGWFSQRCRKINHSKSSLSFLVPSLLQFTFSEDDPIVQIEIDNSRNILYTRSEKGVIQVYDLGHDGQGMSRVASVSQNAIVSAAGNIARTIDRSVFKPIVQIAVIESSESLDCQLLAVTHAGVRLYFSTCPFRQPLARPNTLTLVHVRLPPGFSASSTVEKPSKVHKALYSKGILLMTASENEDNDILWCVNHDTFPFQKPMMETQMTTRVDGHSWALSAIDELKVDKIITPLNKDHIPITDSPVVVQQHMLPPKKFVLLSAQGSLMFHKLRPVDQLRHLLVSNVGGDGEEIERFFKLHQEDQACATCLILACSTAACDREVSAWATRAFFRYGGEAQMRFPATLPTPSNVGPILGSPMYSSSPVPSGSPYPNPSSLGTPSHGAQPPTMSTPMCAVGSPAMQAASMSGLTGPEIVYSGKHNGICIYFSRIMGNIWDASLVVERVFKSSNREITAIESSVPVQLLESVLQELKGLQEFLDRNSQFSGGPLGNPNTTARVQQRLVGFMRPENGNTQQMQQELQRKFQEAQLSEKISLQAIQQLVRKSYQALALWKLLCEHQFSVIVGELQKEFQEQLKITTFKDLVIRDKEVTGALIASLINCYIRDNAAVDGISLHLQDTCPLLYSTDDAVCSKANELLQRSRQVQSKTERERMLRESLKEYQKISNQVDLPSVCAQYRQVRFYEGVVELSLTAAEKKDPQGLGLHFYKHGEPEEDVVGLQTFQERLNSYKCITDTLQELVNQSKAAPQSPSVPKKPGPPVLSSDPNMLSNEEAGHHFEQMLKLAQRSKDELFSIALYNWLIQADLADKLLQIASPFLEPHLVRMARVDQNRVRYMDLLWRYYEKNRSFSSAARVLSKLADMHSTEISLQQRLEYIARAILSAKSSTAISSIAADGEFLHELEEKMEVARIQLQIQETLQRQYSHHSSVQDAISQLDSELMDITKLYGEFADPFKLAECKLAVIHCAGYSDPILVHTLWQDIIEKELNDSVALSSSDRMHALSLKLVLLGKIYAGTPRFFPLDFIVQFLEQQVCTLNWDVGFVIQTMNEIGVPLPRLLEVYDQLFKSRDPFWNRVKSPLHLLDCIHVLLTRYVENPSLVLNCERRRFTNLCLDAVCGYLVELQSMSSSVAVQAITGNFKSLQAKLERLH",binds

# More lines, now with the values ahead:
row,binding,Molecule
1,binds,TRIP12 (from UniProt G5E870 1-2025)
2,binds,"ZFP161 (protein, UniProt Q08376 1-449) MEFFISMSETIKYNDDDHKTLFLKTLNEQRLEGEFCDIAIVVEDVKFRAHRCVLAACSTYFKKLFKKLEVDSSSVIEIDFLRSDIFEEVLNYMYTAKISVKKEDVNLMMSSGQILGIRFLDKLCSQKRDVSSPDESNGQSKSKYCLKLNRPIGDAADAQDDDVEEIGDQDDSPSDDTVEGTPPSQEDGKSPTTTLRVQEAILKELGSEEVRKVNCYGQEVESMETPESKDLGSQTPQALTFNDGMSEVKDEQTPGWTTAASDMKFEYLLYGHHREQIACQACGKTFSDEGRLRKHEKLHTADRPFVCEMCTKGFTTQAHLKEHLKIHTGYKPYSCEVCGKSFIRAPDLKKHERVHSNERPFACHMCDKAFKHKSHLKDHERRHRGEKPFVCGSCTKAFAKASDLKRHENNMHSERKQVTPSAIQSETEQLQAAAMAAEAEQQLETIACS"

# These are yes or no findings as the source states them, for the method shown. In cells and extracts the contact can be indirect. A yes stands for co-enrichment or nearness to the bait. Other partners may have been found.
